According to US20210130401A1 (THE REGENTS OF THE UNIVERSITY OF MICHIGAN, priority 2017, published 2021):

Assay: general procedure: hybrid (solid and solution phase) peptide synthesis; 2-chlorotrityl chloride resin (ChemPep, 1 mmol/g); EDCl, HOAt, DIPEA (solution couplings)
Settings: for final purity (method not given): Waters ACQUITY UPLC, reverse-phase SunFire C18 5 um 4.6x150 mm, 0.1% TFA water/CH3CN
[1] = whole synthesis, scale of the general procedure 0.1 mmol, TFA salt
[2] = whole synthesis, over 3 steps, scale of the general procedure 0.1 mmol, TFA salt
[3] = late stage modification step, TFA salt
[4] = whole synthesis, over 4 steps, scale of the general procedure 0.1 mmol, TFA salt

| Substance | isolated mass (whole synthesis, TFA salt) | final purity (method not given) [1] | isolated yield [2] | also measured |
| --- | --- | --- | --- | --- |
| N-((3R,6S,12R)-6-ethyl-12-methyl-2,5,8,11-tetraoxo-3-phenyl-9-(3-phenylpropyl)-1,4,7,10-tetraazacyclotetradecan-12-yl)isobutyramide | 3.9 mg | >98% purity | 7% yield over 3 steps | – |
| N-((3R,6S,12R)-6-ethyl-12-methyl-2,5,8,11-tetraoxo-9-phenethyl-3-phenyl-1,4,7,10-tetraazacyclotetradecan-12-yl)isobutyramide | 3.9 mg | >98% purity | 7% yield over 3 steps | – |
| N-((3R,6S,12R)-9-(3-(2-chloroacetamido)propyl)-6-ethyl-12-methyl-2,5,8,11-tetraoxo-3-phenyl-1,4,7,10-tetraazacyclotetradecan-12-yl)isobutyramide | – | – | – | step yield [3]: 78%; final purity (method not given) [3]: >98% |
| N-((3R,6S,12R)-9-(3-amino-3-oxopropyl)-6-ethyl-12-methyl-2,5,8,11-tetraoxo-3-phenyl-1,4,7,10-tetraazacyclotetradecan-12-yl)isobutyramide | 8.8 mg | >98% purity | 17% yield over 3 steps | – |
| N-((3S,6S,9S,12R)-6-ethyl-12-methyl-9-(3-(3-methylguanidino)propyl)-2,5,8,11-tetraoxo-3-phenyl-1,4,7,10-tetraazacyclotetradecan-12-yl)isobutyramide | – | – | – | isolated yield [4]: 7% yield over 4 steps |
| N-((6S,9S,12R)-3-(3-chlorophenyl)-6-ethyl-9-(3-guanidinopropyl)-12-methyl-2,5,8,11-tetraoxo-1,4,7,10-tetraazacyclotetradecan-12-yl)isobutyramide | – | – | – | isolated yield (whole synthesis, over 4 steps, scale of the general procedure 0.1 mmol, CF3COOH salt): 15% |
| N-((8S,11R,16R)-8-(3-guanidinopropyl)-11-methyl-7,10,15,18-tetraoxo-16-phenyl-6,9,14,17-tetraazaspiro[4.13]octadecan-11-yl)isobutyramide | 4.2 mg | >98% | – | isolated yield [4]: 7% |
